The record followed here is publication doi:10.1101/403675.

These are yes or no findings as the source states them, for the method shown. Binding calls can cover weak binding; strength is not graded here.

In this test the target is T1, Onzin from Mus musculus (MmOnzin) (Mus musculus) (UniProt Q9JI48).
T1 sequence: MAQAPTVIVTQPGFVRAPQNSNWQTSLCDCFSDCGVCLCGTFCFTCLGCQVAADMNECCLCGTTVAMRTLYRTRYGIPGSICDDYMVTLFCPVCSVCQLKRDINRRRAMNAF
As to the kind of experiment: two-hybrid.

For the substance “C-terminal region of MLH3 from Mus musculus (MmMlh3) (domain or fragment)”, the binding result is reported as “binds”.
